PubChem BioAssay AID504764, Drosophila RNAi Screening Center | 2011

Assay: 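Genome-wide screen for regulators of Notch-driven gene expression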 (primary screen)
Cell system: Drosophila Kc167 cells
Knock-down reagent: long dsRNA against Drosophila genes
Duration: about 5 days (4 days dsRNA, then 24 h after transfection)
Conditions: transfection of constitutively active membrane-tethered Notch lacking the extracellular domain, read 24 h later
Measurement: 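Light from a Notch-responsive E(spl)m3 luciferase reporter under active Notch, with control-promoter and no-Notch reporter wells to normalise; raw counts from paired wells a and b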
Scale: induced reporter light, run 1, well a and induced reporter light, run 1, well b: higher = more light from the Notch target reporter with active Notch; control promoter light, run 1, well a and control promoter light, run 1, well b: higher = more light from the viral control promoter (cell number, transfection, viability); uninduced reporter light, run 1, well a: higher = more light from the Notch target reporter without active Notch
Active means: 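Hit if the duplicate-averaged log2 ratio of induced to control-promoter light gives a plate-wise z beyond ±2, or induced to uninduced beyond ±1.8; weak-control or discordant-duplicate wells dropped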
Calls: active = modifier hit (raised or lowered Notch signal); inactive = not a hit
The screen tested about 22,000 reagents; below is an unselected part of those that have a named target and a result. Over the whole deposit, 403 (1.9%) were called active. 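Unnormalised raw counts per well; ratio z-scores behind the hit calls and whether each hit raises or lowers signal are not deposited.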 Entries without a mark were called inactive. Names joined by + are all predicted targets of the reagent. Reagent sequences are not shown. Not given: the amount of reagent.

Target gene	dsRNA	induced reporter light, run 1, well a	induced reporter light, run 1, well b	control promoter light, run 1, well a	control promoter light, run 1, well b	uninduced reporter light, run 1, well a
Sgs5bis	DRSC16263	2.08e5	1.94e5	2.13e5	2.23e5	17580
CG8252	DRSC07126	1.82e5	1.87e5	2.02e5	1.85e5	16790
Blos4	DRSC10151	1.28e5	1.08e5	1.50e5	1.48e5	5905
chm	DRSC03341	1.30e5	1.49e5	1.49e5	1.25e5	14788
Sgs8	DRSC11282	1.86e5	1.51e5	2.31e5	1.73e5	6970
Ac13E	DRSC19325	1.00e5	1.08e5	1.49e5	1.33e5	17270
CG31496	DRSC12547	1.61e5	1.77e5	2.89e5	2.61e5	12550
CG32454	DRSC11652	1.25e5	1.14e5	83665	92475	8545
Sumo	DRSC03611	12330	7570	13638	17040	815
CG2767	DRSC15451	1.66e5	1.35e5	1.15e5	88045	9410
Naus	DRSC06011	1.08e5	99390	1.89e5	1.90e5	9045
Naus	DRSC06469	65960	58875	75565	62025	8130
CG34054	DRSC05277	2.04e5	1.95e5	3.02e5	3.07e5	21250
Atg10	DRSC06172	1.89e5	2.60e5	3.02e5	2.96e5	23095
Set8	DRSC15473	1.16e5	1.12e5	91355	83320	11920
IntS3	DRSC21215	75450 (active)	67355	57395	63110	10790
Or22c	DRSC00766	1.28e5	1.21e5	1.20e5	68430	9065
ebi	DRSC00816	1.96e5	2.34e5	2.10e5	2.14e5	21335
CG15167	DRSC02468	59565	49370	50515	44215	4275
CG15739	DRSC19705	1.10e5	1.06e5	1.93e5	1.82e5	7535
Gk1	DRSC08533	95205	1.01e5	1.76e5	2.32e5	7950
Gk1	DRSC08534	1.57e5	2.08e5	2.51e5	2.88e5	11770
CG14142	DRSC10145	2.47e5	2.46e5	2.73e5	2.27e5	14415
slf	DRSC00583	1.22e5	1.51e5	1.16e5	1.22e5	8365
CG44325	DRSC18423	1.37e5	1.41e5	2.17e5	2.29e5	11585
CG31468	DRSC13637	2.15e5	1.70e5	1.93e5	2.12e5	14880
CG3795	DRSC18593	1.50e5	1.41e5	1.83e5	1.82e5	11970
Kaz1-ORFB + Kaz1-ORFA	DRSC08669	1.47e5	1.27e5	2.11e5	2.68e5	12015
ssh	DRSC16730	1.49e5	1.57e5	1.85e5	1.76e5	10605
Tnpo-SR	DRSC00546	2.12e5	2.29e5	1.98e5	2.23e5	16092
CG10761	DRSC17753	1.42e5	1.63e5	2.68e5	2.39e5	10810
CG7685	DRSC16285	1.59e5	1.64e5	1.94e5	1.98e5	10865
Rcd-1	DRSC19569	57965	69670	68790	67875	9130
sigmar	DRSC04449	1.46e5	2.09e5	1.64e5	1.68e5	14830
ScsbetaG	DRSC11294	2.53e5	2.49e5	2.01e5	2.65e5	15010
mad2	DRSC10274	2.25e5	1.78e5	2.33e5	2.35e5	10000
DCAF12	DRSC15475	1.38e5	1.19e5	88285	71525	11750
CG9743	DRSC16552	1.50e5	1.41e5	1.97e5	1.63e5	10988
CG12682	DRSC17873	1.01e5	1.08e5	2.11e5	1.80e5	7460
MTF-1	DRSC08983	1.76e5	1.68e5	2.23e5	1.97e5	11145
MTF-1	DRSC11217	1.78e5	1.19e5	1.65e5	1.61e5	6465
Dronc	DRSC11231	1.83e5	1.74e5	1.15e5	70405	12965
mthl2	DRSC10287	1.98e5	1.85e5	3.58e5	2.23e5	12990
CG10512	DRSC11615	1.02e5	99125	1.01e5	75870	9345
Tfb4	DRSC00675	1.17e5	1.01e5	1.08e5	69830	9335
CG14569	DRSC11730	1.31e5	1.21e5	1.12e5	88565	8055
TfIIEalpha	DRSC11303	1.14e5	1.38e5	76970	35395	12175
CG31855	DRSC02968	86790	96935	1.20e5	1.34e5	8765
His4r	DRSC16703	45465	54175	55175	49650	8160
CG10344	DRSC04066	2.22e5 (active)	1.96e5	1.36e5	1.51e5	13610

Limited to “induced reporter light, run 1, well a” (3 entries from above):
CG15739 [DRSC19705] = 1.10e5
Gk1 [DRSC08533] = 95205
Gk1 [DRSC08534] = 1.57e5
